The values are deposited in ChEMBL (CHEMBL3988442, “University of Dundee, Small-Polar-MMV Screening Library” (2021)).

Mtb glucose medium: 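Whole-cell growth test on Mycobacterium tuberculosis, read after 3 days in glucose-containing 7H9 medium; the read-out is not stated. Concentration: 50 µM. Higher reads as more growth inhibition (inferred: compounds with an IC50 in retests scored well above the rest). Of about 69,000 compounds tested this way, about 760 (1.1%) reached 50% or more in at least one test.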
Mtb cholesterol medium: 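Growth of Mycobacterium tuberculosis over 4 days (cholesterol / DPPC medium with tyloxapol); the read-out is not stated. Tested at 50 µM. Direction is inferred from retests: higher values go with more growth inhibition. Of about 69,000 compounds tested this way, about 370 (0.54%) reached 50% or more in at least one test.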

Results are given as percent effect.
The controls that fix the scale are not given in the record; negative values are as filed.
Compounds were drawn at random from those tested, without regard to their results.
Two or more numbers in one place are separate tests of the same structure; such repeats can differ widely.

Compound	Mtb glucose medium	Mtb cholesterol medium
[H][C@@]12C[C@H](C(=O)NC)[C@@]([H])(CN(C(=O)NCCc3ccccc3)C1)O2	2.653	-4.232
Cc1ccc(N2CCCC(NCc3sccc3C)C2)nn1 (centres undefined)	8.309	14.64
CS(=O)(=O)NC1CCCN(c2ccc(C#N)cn2)C1 (centres undefined)	5.533	-13.43
c1ccc(Cc2nnc(CN3CCn4c(nnc4C4CC4)C3)o2)cc1	17.52	12.31
O=C(O)C(F)(F)F.[H][C@@]12CN(C(C)=O)CCO[C@]1([H])CN(S(=O)(=O)c1cccnc1)C2	-7.716	-6.896
CC(C)n1cc(CN2CCCN(C(=O)c3cccnc3O)CC2)cn1	12.72	-5.614 & -4.988
Cc1cc(C2CCCN2CCCS(=O)(=O)c2ccccc2)no1 (centres undefined)	-16.76	1.807
COCCn1cc2c(n1)C(CNCc1cccc(OC)c1)OCC2.O=C(O)C(F)(F)F (centres undefined)	-2.405	12.44
Cc1nc(N2CCCC2)nc(N2CCC(O)(C(=O)O)CC2)c1C	-11.08	-33.13
O=C(NCCCN1CCCCCC1=O)c1n[nH]c(=O)c2ccccc12	5.765	2.005
CCOc1ccc(N(CCC#N)C(=O)c2ccnc(SC)c2)cc1	-3.02 & -19.22	-14.59
O=C(CCc1ccccn1)NC1CCN(c2cccc(Cl)c2)C1 (centres undefined)	13.1	-29.91
Cn1cc(CNC(=O)NCCOc2ccc(F)c(F)c2)cn1	-1.005 & 14.31	1.035
CS(=O)(=O)C1(CNCc2cccc(-n3cccn3)c2)CCOCC1	-29.8	-23.76
CCSCCC(=O)NCc1cc2n(n1)CCN(C(=O)N(C)C)C2	-5.236 & -25.24	-28
COCC1CN(C(=O)c2ccnnc2)Cc2c1cnn2C (centres undefined)	6.295	-5.928
Cc1n[nH]c(C)c1CCCNCc1cn(CCC(N)=O)c2ccccc12	8.466	4.086 & -3.85
CC(C)N(CCNC(=O)c1n[nH]c2ccccc12)C(C)C	3.53	-5.205
O=C(O)C(F)(F)F.c1cc(CNCC2Cn3nncc3CO2)co1 (centres undefined)	-4.86 & -10.41	-3.936
O=C1CC(c2ccc(CO)o2)c2cnn(Cc3ccco3)c2N1 (centres undefined)	-2.166	-7.544
COCc1c(Br)cccc1NC(=O)N(C)CCO	-0.4243 & 3.759	8.926
[H][C@@]12CS(=O)(=O)C[C@]1([H])N(Cc1nccn1C)CCN2Cc1ccc(C)o1	0.5983 & 6.27	-9.015
CC(=O)NCC(=O)N(CCc1ccccc1)C1CCOC1 (centres undefined)	-4.25 & -5.744	-14.44
Cn1nccc1C1CCN(CC(O)c2cccc(F)c2)CC1 (centres undefined)	12.66	5.854
CC[C@@H]1N(Cc2ccc(F)cc2)CCC[C@]12CCC(=O)N2C.O=C(O)C(F)(F)F	9.008	-3.854 & -11.83
[H][C@]12CCCCN1CCC[C@H]2CN(C)Cc1nc2ccccc2c(=O)[nH]1	-32.92	-15.71
CN(CC(O)COc1ccc(C(F)(F)F)cc1)C(=O)Nc1nncs1 (centres undefined)	34.18	37.24
O=C(C1CCCCC1)N1CCCC2(CCN(c3cnccn3)CC2)C1.O=C(O)C(F)(F)F	4.931	3.976
CCc1nnc(CN(CC)C(=O)CCc2scnc2C)o1	25.47	9.681
O=C(O)C(F)(F)F.c1ccc(N2CCCC3(COCCN(c4nccs4)C3)C2)nc1 (centres undefined)	12.51	-2.583
CCn1c(NCc2ccco2)nc2c(C)nn(C)c2c1=O	-3.56	-13.1
CNC(=O)CNC(=O)Nc1ccc(Br)c(F)c1	-13.45 & -1.443	-18.62
Cc1ncc2c(n1)CN(Cc1nc(-c3cccs3)no1)CC2	-8.138 & -18.74	-19.54
Cc1ncccc1C(=O)NCc1ccccc1CN(C)Cc1ccco1	-2.185 & 24.05	-2.276
O=C(CC1CCN(CCN2CCCCC2)CC1)N1CCOCC1	12.77 & 3.809	-33.38
O=C(Cc1ccsc1)N1CCC(c2noc(-c3cccnc3)n2)CC1	-5.799	-2.727
CC(=O)N1CCc2nc(N3CCCC3)nc(C)c2C1	-9.586	-11.4 & -5.771
O=C(CCc1ccccc1F)NS(=O)(=O)c1ccc2c(c1)OCCCO2	-20.95	-9.532
CN(CCOCC1CC1)C(=O)Nc1ccc([S+](C)[O-])cc1 (centres undefined)	-13.55	-21.1 & -24.48
COc1ncccc1C(=O)N1CCn2c(COCC3CC3)cnc2C1C (centres undefined)	-0.5914	-10.36
CCN(CC)C(=O)Cn1cc(C(=O)NCCc2nc(C)c(C)s2)nn1	13.7	-9.45
N#CCCCS(=O)(=O)NC(=O)c1cccc(Cl)c1F	28.99 & -1.845	8.1
CCC(C)(C)NC(=O)c1nnn(-c2cccc3c2CCN(C)C3)c1C	9.658	0.7076 & 5.085
O=C(C1CC=CC1)N1CCC2(CCN(Cc3ccccn3)C2=O)C1.O=C(O)C(F)(F)F (centres undefined)	20.1	-2.336
CCOC(=O)N1CCN(C(=O)C(CC)n2cccn2)CC1 (centres undefined)	-15.36	0.9445
Cc1cc(C(=O)NCC(O)CN2CCCC2=O)ccc1F (centres undefined)	14.67 & 5.157	3.761
CC(C)CNC(=O)c1cc(Br)c2c(c1)OCCO2	8.955	12.59
Cc1c[nH]c(C2CN(Cc3ccccc3C(=O)O)CCO2)n1 (centres undefined)	15.82	-7.654
Cc1nc(CC(=O)N2c3ccccc3OCC2C)cs1 (centres undefined)	2.268 & 7.542	12.95
CCSc1ccc(NC(=O)NC2CCc3[nH]ncc3C2)cn1 (centres undefined)	10.33	-5.688
COCCC(=O)N1CCC(c2nnc(-c3ccsc3)o2)CC1	-26.04	-14.29 & -12.28
CC(C)(C(=O)NCC(=O)N1CCCC1)c1ccccc1F	-11.31	0.9573
c1cncc(CNc2cccc(OCCN3CCCCC3)c2)c1	-3.43	8.94
Cc1nc(NC2CCS(=O)(=O)CC2)cc(C2CCCNC2)n1 (centres undefined)	1.196 & -0.6582	-2.369 & 4.711
CCCc1nnc2sc(C3CCS(=O)(=O)CC3)nn12	-2.459 & 0.768	3.708
COc1ccc(C(=O)N2CCN(C(=O)Cn3nccc3C)CC2)cc1	1.635	-0.07387 & -7.816
O=C(O)C(F)(F)F.[H][C@@]12CCN(CC3CCCO3)C[C@]1([H])CN(C(=O)Cc1cccs1)C2 (some centres undefined)	6.191	18.16
COCCN1CCN(C(C)C(=O)Nc2ccnn2C(C)C)CC1 (centres undefined)	36.42	53.27 & 16.43
[H][C@]12CCN(C(=O)c3cc[nH]n3)[C@@]1([H])CC(=O)N2Cc1cccnc1	25.71	-8.26
Cc1oc(-c2cccs2)nc1C(=O)N(C)C1(C#N)CCC1	10.44	8.698
Cc1nccn1CCN(C)C(=O)C1CCN(C(=O)C2CCC2)CC1	-44.44	-14.77
O=C(O)c1cnc(N2CCCC2)nc1COc1ccc(F)cc1	0.4755 & 23.31	20.94
CN(CC(=O)NCC(O)c1cccc(F)c1)C(=O)OC(C)(C)C (centres undefined)	-3.377	-3.07 & -7.311
CN1CCN([C@@H]2CCN(Cc3cccc(-n4cccn4)c3)C[C@H]2O)CC1	-2.537	-12
CN(C)Cc1nc(C(C)(C)NC(=O)c2cccc3ccccc23)no1	2.45 & -1.777	-8.841
Cc1ccc(N2CCC(NC(C)c3cccs3)CC2)nc1 (centres undefined)	7.304	17.48
Cc1cc(N2CCCC(O)CC2)n2nc(C)c(C)c2n1 (centres undefined)	-26.15	-30.47 & -12.87
CNC(=O)CCc1cc(C)nc(C2CCCN2)n1 (centres undefined)	-7.759	5.827
Cc1cc(C(=O)NCC(F)(F)F)c2c(C3CCNCC3)noc2n1	3.686	-2.745
C1CN(CC2CCOCC2)Cc2c(COCC3CC3)nnn2C1.O=C(O)C(F)(F)F	18.05 & 1.641	7.222
O=C(CNCCn1cccn1)NCC1(c2ccccc2)CC1	-13.29	5.541
CCc1noc(C(C)N2CCN(CC)CC2)n1 (centres undefined)	-31.13	2.693
NC(=O)C1CCN(Cn2nc(-c3ccc(F)cc3)oc2=O)CC1	-65.22	-17.87
CN(C)C(=O)COCC1CN(CC2CCOCC2)Cc2ncn(C)c21 (centres undefined)	-3.697	4.593

For reference, 5 entries once more:

| Compound | Mtb glucose medium | Mtb cholesterol medium |
|---|---|---|
| `CC(C)N(CCNC(=O)c1n[nH]c2ccccc12)C(C)C` | 3.53 | -5.205 |
| `c1cncc(CNc2cccc(OCCN3CCCCC3)c2)c1` | -3.43 | 8.94 |
| `O=C(O)C(F)(F)F.[H][C@@]12CCN(CC3CCCO3)C[C@]1([H])CN(C(=O)Cc1cccs1)C2` (some centres undefined) | 6.191 | 18.16 |
| `O=C(C1CCCCC1)N1CCCC2(CCN(c3cnccn3)CC2)C1.O=C(O)C(F)(F)F` | 4.931 | 3.976 |
| `O=C(Cc1ccsc1)N1CCC(c2noc(-c3cccnc3)n2)CC1` | -5.799 | -2.727 |